Measured values: patent publication US20250205191A1, “R(-)-MDMA COMPOSITIONS AND METHODS OF TREATMENT” (EmpathBio, Inc., priority 2023, published 2025)

Tested on: mature BDNF (mBDNF)
Assay: Phase 1 neuroplasticity biomarker mBDNF
Type: in vivo, human

Structure (SMILES): CN[C@H](C)Cc1ccc2c(c1)OCO2 [R(−)-MDMA, R(−)-3,4-methylenedioxymethamphetamine]
- mean concentration of mBDNF (125 mg group in the fed state, Day 10): nominal increase
- mBDNF change (225 mg group, Day +1): numerical increase
- mean concentration of mBDNF (R(−)-MDMA Total group, Day 2): nominal reduction
- mBDNF change (all other cohorts (75, 125, 175 mg)): numerical decreases
